Results reported in paper PMC6852550.
Results are given in words; binding and its absence hold for the method and conditions named. Binding seen in cells or lysates may run through a third protein. Some entries that bind do so weakly or less than the wild type. Where a sequence is shown, tags or fusion partners need not be part of it.

Legend:
[1] = molecular target: T1, CDKD;1:GFP (CYCLIN-… KINASE D;1 with C-terminal GFP) (Arabidopsis thaliana) (UniProt Q9C9U2); assay: co-IP; GFP-Trap agarose on 20 mg total protein extract of 14- to 15-day-old Arabidopsis seedlings co-expressing the two tagged proteins; 2 h at 4°C; washed with 50 mM Tris-HCl pH 7.5, 300 mM NaCl; western blot with anti-RFP, anti-HA and anti-GFP antibodies
T1 sequence: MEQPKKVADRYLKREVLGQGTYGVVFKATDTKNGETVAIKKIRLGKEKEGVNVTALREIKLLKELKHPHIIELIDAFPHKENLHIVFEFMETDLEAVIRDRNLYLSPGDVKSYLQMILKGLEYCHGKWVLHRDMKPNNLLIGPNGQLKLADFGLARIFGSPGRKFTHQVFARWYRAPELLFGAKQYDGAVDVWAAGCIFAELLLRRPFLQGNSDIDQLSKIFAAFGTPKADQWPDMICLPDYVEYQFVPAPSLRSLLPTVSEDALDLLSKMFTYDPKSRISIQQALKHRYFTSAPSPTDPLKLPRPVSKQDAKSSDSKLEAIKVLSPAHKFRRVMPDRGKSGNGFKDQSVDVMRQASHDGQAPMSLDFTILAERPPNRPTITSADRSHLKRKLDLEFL

[2] = molecular target: T2, CDKD;3:GFP (CYCLIN-… KINASE D;3 with C-terminal GFP) (Arabidopsis thaliana) (UniProt Q9LMT0); assay: as above
T2 sequence: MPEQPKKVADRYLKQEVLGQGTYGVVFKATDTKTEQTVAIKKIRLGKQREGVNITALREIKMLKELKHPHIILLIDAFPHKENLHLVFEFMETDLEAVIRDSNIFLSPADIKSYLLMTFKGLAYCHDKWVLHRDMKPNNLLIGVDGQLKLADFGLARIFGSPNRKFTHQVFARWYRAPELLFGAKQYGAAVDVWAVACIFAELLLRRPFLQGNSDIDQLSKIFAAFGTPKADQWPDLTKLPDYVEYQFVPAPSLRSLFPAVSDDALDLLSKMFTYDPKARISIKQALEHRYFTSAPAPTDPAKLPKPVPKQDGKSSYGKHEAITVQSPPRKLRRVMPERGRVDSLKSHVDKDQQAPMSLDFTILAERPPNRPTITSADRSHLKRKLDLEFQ

B1: CDKF;1:PIPL (CDKF;1 with C-terminal PIPL tag) (enzyme, UniProt O80345 1-479)
chain: MDKQPATSWSIHTRPEIIAKYEIFERVGSGAYADVYRARRLSDGLIVALKEIFDYQSAFREIDALTILNGSPNVVVMHEYFWREEENAVLVLEFLRSDLAAVIRDGKRKKKVEGGDGFSVGEIKRWMIQILTGVDACHRNLIVHRDLKPGNMLISDDGVLKLADFGQARILMEHDIVASDENQQAYKLEDKDGETSEPPEVIPDYENSPRQGSDGQEREAMSKDEYFRQVEELKAKQVVRDDTDKDSNVHDGDISCLATCTVSEMDDDLGRNSFSYDADEAVDDTQGLMTSCVGTRWFRPPELLYGSTMYGLEVDLWSLGCVFAELLSLEPLFPGISDIDQISRVTNVLGNLNEEVWPGCVDLPDYKSISFAKVESPLGIEGCLPNHSGDVISLLKKLICYDPASRATTMEMLNDKYLSEEPLPVPVSELYVPPTMSGPDEDSPRKWNDYREMDSDSDFDGFGPMNVKPTSSGFTIEFP
[1]
  binding: binds
[2]
  binding: binds
